Several values for one entry are separate records, joined by “and”; a condition that tells them apart may be missing. Identical values can stand only once. Screen size: about 580,000 compounds; about 6,100 (1.1%) were called active. Inconclusive means that the source gave no clear call. Such entries were picked first, then a sample of the others. Calls follow the shape of the dose curve; as a rule, active = well fitted inhibition curve with a large enough effect; inconclusive = small, poorly fitted or top-dose-only effect, or another doubt; inactive = no such curve, though single readings can be large or run the other way. Potencies of inconclusive entries are doubtful fits and often do not repeat.
Biological target: Polyunsaturated fatty acid lipoxygenase ALOX12 (Homo sapiens) (UniProt P18054)
Test: Primary qHTS assay for inhibitors of human arachidonate 12S-lipoxygenase (ALOX12): Round 2
Settings: purified 12hLO, xylenol orange hydroperoxide absorbance; series mostly up to 108 µM
Outline: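 Purified human 12hLO at 150 nM in 25 mM Hepes, 0.01% Triton X-100, pH 7.0, preincubated 15 min at room temperature with compound. Reaction started with 40 uM arachidonic acid, 30 min at room temperature. Hydroperoxide measured by Fe-xylenol orange, 573/405 nm absorbance ratio.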
Potency is read from the fitted curve at half-maximal effect.

The chains behind the UniProt entries cited, without tags or fusion partners. Where a name states a change or a piece, a line headed by the entry shows the natural chain unless it says otherwise.
UniProt P18054: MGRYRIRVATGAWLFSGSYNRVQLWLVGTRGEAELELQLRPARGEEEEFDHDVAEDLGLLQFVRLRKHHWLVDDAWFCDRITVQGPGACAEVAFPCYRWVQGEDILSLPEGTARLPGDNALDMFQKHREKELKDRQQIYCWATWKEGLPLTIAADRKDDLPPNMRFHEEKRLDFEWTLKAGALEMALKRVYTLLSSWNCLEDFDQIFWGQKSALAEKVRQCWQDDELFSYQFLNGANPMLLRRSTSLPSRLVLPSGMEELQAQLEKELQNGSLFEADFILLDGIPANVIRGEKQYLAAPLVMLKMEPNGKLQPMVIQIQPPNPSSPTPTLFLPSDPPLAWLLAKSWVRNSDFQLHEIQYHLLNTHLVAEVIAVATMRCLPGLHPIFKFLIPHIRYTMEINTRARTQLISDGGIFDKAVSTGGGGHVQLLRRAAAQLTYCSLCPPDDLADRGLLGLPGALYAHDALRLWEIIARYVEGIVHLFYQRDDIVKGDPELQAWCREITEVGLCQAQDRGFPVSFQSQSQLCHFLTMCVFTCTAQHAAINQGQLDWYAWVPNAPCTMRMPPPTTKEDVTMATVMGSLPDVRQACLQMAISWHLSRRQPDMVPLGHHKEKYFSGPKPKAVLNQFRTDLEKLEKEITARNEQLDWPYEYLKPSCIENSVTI

SMILES | Potency
CCCNC(=O)N1CCCC2(CCC(=O)N(CCc3cnc[nH]3)C2)C1 (stereo unspecified) | inactive
CCCCCC1c2cc(c(O)cc2O)C(CCCCC)c2cc(c(O)cc2O)C(CCCCC)c2cc(c(O)cc2O)C(CCCCC)c2cc1c(O)cc2O (stereo unspecified) | inactive
Cc1ccccc1NC(=O)CSC(=O)c1ccccc1 | inconclusive: 44.7 µM [inhibitor, partial curve, poor fit]
COc1ccc(C(=O)COC(=O)c2cc(S(=O)(=O)N3CCCCC3)ccc2N2CCOCC2)c(OC)c1 | inactive
CC1CCCC(NS(=O)(=O)c2cc(Br)cnc2N)C1C (stereo unspecified) | inconclusive: 56.2 µM [inhibitor, partial curve, poor fit]
O=C(Cc1csc(NC(=O)Nc2ccc(Cl)cc2)n1)NCc1ccccn1 | inconclusive: 70.8 µM [inhibitor, partial curve, poor fit]
COc1cccc(C(=O)N2C(C(=O)NCc3ccccc3F)COC23CCC(C)CC3)c1 (stereo unspecified) | inconclusive: 7.08 µM [inhibitor, full curve]
CC1CCCCC1NC(=O)COC(=O)c1ccc(S(=O)(=O)NCc2ccco2)cc1 (stereo unspecified) | inactive
CCOC(=O)CNC(=O)Nc1ccccc1C(=O)OC | inactive
O=S(=O)(Nc1nnc(C2CC2)s1)c1ccccc1 | inactive
CCOc1ccc(/C=N/N=C/c2ccc(OCC)cc2)cc1 | inactive
CCCc1nc2ccc(Cl)cn2c1Cc1cccc(Cl)c1 | inconclusive: 56.2 µM [inhibitor, partial curve, poor fit]
COC(=O)C1=C(C)OC(N)=C(C#N)C1c1cccc(C(F)(F)F)c1 (stereo unspecified) | inconclusive: 141 µM [inhibitor, single point]
Cc1ccc2sc(N(CCCN(C)C)C(=O)c3ccc(S(=O)(=O)N4CCCCCC4)cc3)nc2c1C | inconclusive: 50.1 µM [inhibitor, partial curve, poor fit]
Cc1ccc(S(=O)(=O)c2c(N)n(Cc3ccco3)c3nc4ccccc4nc23)cc1 | inconclusive: 39.8 µM [inhibitor, partial curve, poor fit]
CCOC(=O)N1CCN(CC(O)COCCC23CC4CC(CC(C4)C2)C3)CC1 (stereo unspecified) | inconclusive: 31.6 µM [inhibitor, partial curve, poor fit]
COc1ccc(Cl)cc1NC(=O)CN1CCN(S(=O)(=O)c2ccc(F)cc2)CC1 | inactive
CCC(C)Sc1ccc(-c2nc3cnccn3c2NC2CCCCC2)cc1 (stereo unspecified) | inconclusive: 39.8 µM [inhibitor, partial curve] and inconclusive: 11.2 µM [inhibitor, full curve, poor fit]
O=C(CSc1nc2c(cnn2-c2ccc(F)cc2)c(=O)[nH]1)Nc1ccc(Br)cc1 | inactive
CC(C)C(CCNC(=O)CC(Cc1ccccc1)c1ccco1)c1ccco1 (stereo unspecified) | inconclusive: 50.1 µM [inhibitor, partial curve, poor fit]
C=Cn1cc[n+](CC(=O)c2cccs2)c1 | inactive
COc1ccc(C(=O)O)cc1S(=O)(=O)NCC(=O)O | inconclusive: 28.2 µM [inhibitor, partial curve]
Cc1ccc(NC(=O)C2=C(c3ccccc3)NC(=S)NC2c2ccc(C(C)(C)C)cc2)cc1 (stereo unspecified) | active: 14.1 µM
CCOc1cccc2cc(-c3nnc(Nc4ccc(F)c(Cl)c4)s3)c(=O)oc12 | inactive

SMILES | Potency
Cn1cc(C2c3nccn3CCCN2C(=O)c2cccn2C)cn1 (stereo unspecified) | inactive
O=C(CC1(CC(=O)N2CCOCC2)CCCC1)Nc1ccccc1 | inactive
CNC(=O)[C@@H]1C[C@H](Oc2cccnc2)CN1S(=O)(=O)c1ccc2c(c1)CCC2 | inactive
O=C(NC1CCCCCC1)c1ccc([N+](=O)[O-])s1 | inactive
Cc1ccc2nc(C(=O)O)c(C(=O)O)nc2c1 | inconclusive: 15.8 µM [inhibitor, full curve]
Cc1noc(C)c1C(=O)N1CCC1(C)C(=O)NS(=O)(=O)c1cccc(OC(F)F)c1 (stereo unspecified) | inconclusive: 2.82 µM [inhibitor, full curve, poor fit]
CCC(=O)Nc1cc(=O)[nH]c2ncnn12 | inactive
CCC(C)NC(=O)/C(C#N)=C/c1c(C)[nH]c2ccccc12 (stereo unspecified) | inconclusive: 50.1 µM [inhibitor, partial curve, poor fit]
CC(=O)c1cccc(NC(=O)C(OC(=O)/C=C/c2ccc3c(c2)OCO3)c2ccccc2)c1 (stereo unspecified) | inconclusive: 56.2 µM [inhibitor, partial curve, poor fit]
Cn1c(SCc2c(Cl)cccc2Cl)nc(C(F)(F)F)cc1=O | inconclusive: 7.94 µM [inhibitor, full curve, poor fit]
Cc1cccc(C)c1Nc1c(-c2ccc(Cl)s2)nc2ncccn12 | inconclusive: 126 µM [inhibitor, single point]
O=C(CSc1ccc2ccccc2n1)Nc1ccc2c(c1)OCCCO2 | inconclusive: 112 µM [inhibitor, single point]
COc1ccc(C(=O)CSc2nnc(-c3ccco3)n2CC2CCCO2)cc1 (stereo unspecified) | inconclusive: 5.62 µM [inhibitor, full curve, poor fit]
COc1ccc2[nH]c(C(=O)O)c(NS(=O)(=O)c3ccc(C)c(C)c3)c2c1 | inconclusive: 15.8 µM [inhibitor, full curve]
Cc1nc2nc(CC(=O)NCc3ccccc3)nn2c(C)c1Cc1ccc(Cl)cc1 | inactive
CC(OC(=O)c1cc(-c2ccco2)nc2ccccc12)C(=O)NC(=O)NC1CCCCC1 (stereo unspecified) | active: 7.94 µM
CC1(c2ccccc2)N(Cc2ccccc2)C(=O)OC12CCN(Cc1ccccn1)CC2 (stereo unspecified) | inconclusive: 39.8 µM [inhibitor, full curve, poor fit]
COCCNC(=O)C(C)OC(=O)c1nsc(Cl)c1Cl (stereo unspecified) | inactive
COc1cc(C(=O)OCCCN2CCOCC2)cc(OC)c1OC | inconclusive: 8.91 µM [inhibitor, full curve, poor fit]
Cc1ccc(-c2nc3ccccc3n2CCNC(=O)Nc2cccc(F)c2)cc1 | inactive
C=C[C@]1(C)C=C2C(=O)[C@@]3(O)OC(=O)[C@@]4(CCCC(C)(C)[C@H]34)[C@@]2(O)CC1 | inconclusive: 12.6 µM [inhibitor, partial curve, poor fit]
COc1cc(C(=S)N2CCCC2)cc(OC)c1OC | inactive
COc1ccccc1CN1CCN(Cc2cc(OC)c(OC)cc2OC)CC1 | inconclusive: 0.224 µM [inhibitor, full curve, poor fit]
CCN(CC(=O)N1c2ccccc2OCC1c1ccccc1)Cc1nc2ccccc2c(=O)[nH]1 (stereo unspecified) | inactive

SMILES | Potency
COc1cccc(-c2nc3cc4c(cc3cc2CN(C(=O)c2csc(C)n2)C2CC2)CCC4)c1OC | inactive
CCCCN(C)S(=O)(=O)c1cc(-c2nn(C)c(=O)c3ccccc23)ccc1C | inactive
CN(C)C(=O)C1CN(C(=O)CCc2ncc(-c3ccc(F)cc3)o2)c2ccccc2O1 (stereo unspecified) | inconclusive: 35.5 µM [inhibitor, partial curve, poor fit]
Cc1cccc(NC(=O)CC2Nc3ccccc3NC2=O)c1C (stereo unspecified) | inconclusive: 14.1 µM [inhibitor, full curve, poor fit]
O=C(Nc1ccccc1)C1Cc2c(-c3ccccc3Oc3ccccc3)ccnc2O1 (stereo unspecified) | inconclusive: 89.1 µM [inhibitor, single point]
N/C(CN1CCCC1)=N\O | inactive
COc1cccc(NC2=CC(=O)CC(C)(C)C2)c1 | inactive
O=C(CCn1nnnc1CN1CCOCC1)N1CCC(c2cccc(Cl)c2)C1 (stereo unspecified) | inconclusive: 4.47 µM [inhibitor, full curve, poor fit]
COC(=O)[C@@H]1CCCN1Cc1ccc2c(c1)CN(Cc1ccccc1F)CCO2 | inactive
CC(Oc1ccc(F)cc1F)C(=O)/C=C/N(C)C (stereo unspecified) | inconclusive: 39.8 µM [inhibitor, partial curve]
CCOC(=O)C1=C(CS(=O)(=O)c2ccc(Cl)cc2)NC(=O)NC1c1ccc(SC)cc1 (stereo unspecified) | inconclusive: 44.7 µM [inhibitor, full curve, poor fit]
CCc1ccc2oc(C(=O)NCC(c3cccs3)N3CCCC3)cc(=O)c2c1 (stereo unspecified) | inconclusive: 79.4 µM [inhibitor, single point]
CC(C)C[C@H](NC(=O)[C@@H]1Cc2ccccc2CN1)C(=O)Nc1ccc(C(C)C)cc1 | inconclusive: 44.7 µM [inhibitor, partial curve, poor fit]
CC1(C(=O)NS(=O)(=O)c2cccs2)CCN1C(=O)CC(c1ccccc1)c1ccccc1 (stereo unspecified) | inconclusive: 63.1 µM [inhibitor, partial curve, poor fit]
O=c1c2sccc2n(Cc2ccc(F)cc2)c(=O)n1-c1ccc(F)cc1 | inactive
CCCCn1c(-c2cccs2)nc2oc3ccccc3c(=O)c2c1=O | inconclusive: 79.4 µM [inhibitor, single point]
Brc1ccccc1/C=N/Nc1nncc2ccccc12 | inactive
CC(C)COc1cccc(C(=O)NC(=S)NCc2cccnc2)c1 | inconclusive: 79.4 µM [inhibitor, single point]
CC(=O)c1c(O)c2cccc3c2n(c1=O)CCC3 | inconclusive: 7.94 µM [inhibitor, partial curve, poor fit]
CCOC(=O)c1sc(N)nc1C(F)(F)F | inactive
Cn1c(CSCc2ccc(Cl)cc2Cl)n[nH]c1=S | inconclusive: 89.1 µM [inhibitor, single point]
Cc1cccc(/C=N/n2c(-c3ccccc3)n[nH]c2=S)c1O | active: 4.47 µM
Cc1ccc(CSCC(=O)N2CCN(c3cc(Cl)ccc3C)CC2)cc1 | inconclusive: 56.2 µM [inhibitor, partial curve, poor fit]

Source: PubChem BioAssay AID1671190 (National Center for Advancing Translational Sciences (NCATS), 2021)
